Patent US20050164186, “Alteration of restriction endonuclease specificity by genetic selection” (published 2005)

What was measured:
Assay in all cases: enzyme reaction in vitro
[1] = test system: T1, BstYI wild-type (Bacillus stearothermophilus); settings: similar proficiency on all RGATCY sites; 60 C; purified recombinant protein; label: radiolabel; only the site is given
T1 sequence: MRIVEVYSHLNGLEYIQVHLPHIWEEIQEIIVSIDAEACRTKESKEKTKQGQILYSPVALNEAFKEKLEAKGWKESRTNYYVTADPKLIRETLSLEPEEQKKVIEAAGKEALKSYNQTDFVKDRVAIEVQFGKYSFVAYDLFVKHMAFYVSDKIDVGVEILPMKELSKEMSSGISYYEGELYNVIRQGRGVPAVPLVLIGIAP

[2] = test system: T2, BstYI clone 9 R2opal (Trp inserted at low frequency),K49R,K87R,K133N (Bacillus stearothermophilus); settings: preference for AGATCT; 10 mM MgCl2; protein in an extract; only the site is given
T2 sequence: T1 sequence with R2W, K49R, K87R, K133N

[3] = test system: T3, BstYI clone A1c Q28H,S172amber (Gln by suppression),Y176C (Bacillus stearothermophilus); settings: preference for AGATCT; 10 mM MgCl2; protein in an extract; only the site is given
T3 sequence: T1 sequence with Q28H, S172Q, Y176C

[4] = test system: T4, BstYI NN1 (K133N/S172N) (Bacillus stearothermophilus); settings: purified recombinant protein, only the site is given
T4 sequence: T1 sequence with K133N, S172N

AGATCC (double strand) [AGATCC/GGATCT site, 60 bp substrate]
activity on this sequence [1]: active

AGATCT (double strand) [AGATCT site, 60 bp substrate]
activity on this sequence [1]: active

AGATCT (double strand) [pUCAdenoXba AGATCT (BglII) sites]
activity on this sequence [2]: active
activity on this sequence [3]: active
activity on this sequence ([4]; BglII-like pattern on plasmid, 10 mM MgCl2, 55 C): active

GGATCC (double strand) [GGATCC site, 60 bp substrate]
activity on this sequence [1]: active
activity on this sequence ([4]; cleavage not detected, 60 C, label: radiolabel): not active

Positions count from the first letter of the chain named. Tags and fusion partners may be left off the protein sequences shown. For some of these results: For at least one entry, the source does not settle the construct or the ends of the probe. For some of these results: Negatives hold for the conditions tested.
